## Library screen at single concentrations

Amino acid sequences for entries named in this document (tags omitted).
UniProt P9WFT3, whole entry: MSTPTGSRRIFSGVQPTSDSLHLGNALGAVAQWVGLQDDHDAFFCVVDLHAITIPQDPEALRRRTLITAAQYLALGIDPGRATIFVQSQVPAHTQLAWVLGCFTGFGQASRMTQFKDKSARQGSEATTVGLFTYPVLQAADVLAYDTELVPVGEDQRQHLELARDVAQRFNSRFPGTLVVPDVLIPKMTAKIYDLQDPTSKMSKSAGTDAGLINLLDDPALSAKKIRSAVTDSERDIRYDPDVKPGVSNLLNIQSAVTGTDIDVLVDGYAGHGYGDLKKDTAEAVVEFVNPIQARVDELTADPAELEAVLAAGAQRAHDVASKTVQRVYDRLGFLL

The values are deposited in ChEMBL (CHEMBL3988442, “University of Dundee, Small-Polar-MMV Screening Library” (2021)).

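Enzyme assay of tryptophanyl-tRNA synthetase; the read-out is not stated. Target: Tryptophan-tRNA ligase, Mycobacterium tuberculosis (UniProt P9WFT3). Compounds at 10 µM. Higher most likely means stronger inhibition; the record gives no direction and few retests gave an IC50. Of about 65,000 compounds tested this way, about 64 (0.098%) reached 50% or more in at least one test.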

Values are the deposited “Percent Effect”, in %.
The record does not define 0% and 100%; most values in the screen are far below 50% and negative numbers occur (in some assays of this library far below -100).
This is an unselected part of the compounds tested.

With CCc1ccc(CN(CC)Cc2ccc(S(=O)(=O)NC)cc2)cc1 the screen gave -0.6369%. Result for CC(=O)N1CCC1c1cc(N2CC(O)C2)nc(C)n1 (stereo not given) was -6.773%. COc1cc(CN2CCN(CC3CC3)[C@@H]3CS(=O)(=O)C[C@@H]32)cc(OC)c1 read -4.77%. COc1ccc(CNC(=O)Nc2cccnc2N2CCCC2)cc1O read -2.426%. Result for Cc1nc[nH]c1CN1CCN(C(=O)C2CC2)[C@H]2CS(=O)(=O)C[C@H]21 was -2.225%. Cc1nnc(N2CCC(CNC(=O)OC(C)(C)C)CC2)c(C#N)c1C read 0.3909%. CC(C)c1nnc(NC(=O)NC2CCN(Cc3ccccc3)C2)s1 (stereo not given) gave -1.872%.

Result for CC(C)N1CCN(C)CC(Cc2cc(N(C)C)ncn2)C1 (stereo not given) was -6.413%. With CCCS(=O)(=O)NCC1CCOc2ccccc2C1 (stereo not given) the screen gave 0.58%. With CCN(C)c1cc(CNC(=O)CNC(=O)CC2CCCCC2)ccn1 the screen gave 0.7227%. Cc1nc(-c2ccc(NCCc3ccc(O)cc3)nc2)[nH]c(=O)c1C gave 1.837%. CC(c1nc(C(C)(C)C)no1)S(=O)(=O)CC(=O)N(C)C (stereo not given) read 0.1792%. For COCCCN1CCC(c2nc3c([nH]2)CC(C)(C)CNC3=O)C1 (stereo not given) the result was -1.57%. Result for O=C(c1coc(COc2ccccc2F)n1)N1CCCO1 was -7.57%.

Cc1nc(CN2CCCC(CCc3ccccc3C)C2)c[nH]1 (stereo not given) gave 2.187%. Result for Cc1nccn1-c1ccc(=O)n(CCNC(=O)c2ccccn2)n1 was 2.214%. With CCOC(=O)NCCC(O)c1ccoc1 (stereo not given) the screen gave -1.607%. COCC(=O)N1CCC2(CC1)CC(OC)c1ccc(F)cc12 (stereo not given) gave 0.2907%. Result for CCN1CC(CN(C)Cc2nc(-c3cccc(Cl)c3)oc2C)CC1=O (stereo not given) was 6.314%. CC(=O)N1CCCN(C(=O)Nc2ccccc2N2CCOC2=O)CC1 read -1.308%. Result for COc1cccc(OCCc2cncc(C(N)=O)c2)c1 was -3.993%.

For CC1(C)CN(C(=O)c2cnc(-c3ccccn3)nc2)CC[C@]1(C)O the result was -5.68%. Result for CCN1CC(CN(C)Cc2nc(-c3ccc(F)cc3)oc2C)CC1=O (stereo not given) was 0.7342%. CCn1c(Cn2cncn2)nnc1C1CCN(C2CCNCC2)CC1 read 3.464%. COc1ncnc(N)c1CNCCc1ccc(-n2cccn2)cc1 read 2.422%. For Cc1nn(CC(=O)Nc2cccc(F)c2)c(N)c1C#N the result was -5.496%. Result for Cc1nc(CN2CCN(C(=O)CC(C)(C)c3ccccc3)CC2)no1 was -2.902%. Result for CCc1nnc2n1CCN(C(=O)c1cnc(-c3cccs3)s1)C2 was -3.489%.

Result for CN1CCN(C2CCN(Cc3cn4ccccc4n3)CC2)C1=O was -0.8163%. Cc1nc(CN2CCCN(CCOc3ccc(C#N)cc3)CC2)no1 gave 6.07%. Result for Cc1cc2nc(CO[C@H]3CN(C4CCC4)C[C@H]3F)[nH]c2cc1C was -4.628%. With CN(C)C(=O)c1cnc2n1CCN(Cc1ccc3c(c1)OCO3)C2 the screen gave -3.284%. O=C(O)[C@]12CCCN(Cc3ccsc3)C[C@H]1CN(c1ncccn1)C2 gave 3.614%. CCn1cnnc1Cc1nc2c([nH]1)CC(c1ccc(Cl)cc1)CNC2=O (stereo not given) gave 0.7276%. Result for CCCn1cc(NC(=O)c2ccncc2)ccc1=O was 3.799%.

Result for CC(=O)N1CCn2c(nnc2C2CCCCN2Cc2ccccc2Cl)C1 (stereo not given) was 4.549%. Result for COc1c(C2CCCN2Cc2c(C)noc2C)c(C)nn1C (stereo not given) was -6.841%. For CCOc1ccc(-c2ccnc(C3CC3)n2)cc1C(=O)O the result was -0.243%. NC(=O)CSCCC(=O)N1CCCC1c1ccsc1 (stereo not given) gave -1.327%. Result for COCCn1cnc2ccc(NC(=O)C(C)C)cc2c1=O was -5.305%. With Cn1c(=O)[nH]c2cc(C(=O)OCC(F)F)ccc21 the screen gave 1.826%. With CN(C)C(=O)C1CN(Cc2ccc(C#N)cc2F)c2ccccc2O1 (stereo not given) the screen gave -5.909%.

CCSc1ncc(CN2CCN(c3nc(C)ncc3C)CC2)cn1 read 1.975%. For Cn1cnnc1CNC(=O)CCCOc1ccccc1Cl the result was 1.288%. With CCc1csc(C2CCCN(C(=O)c3ccc4[nH]nnc4c3)C2)n1 (stereo not given) the screen gave -6.144%. CCC(c1ccc(F)cc1)S(=O)(=O)CCO (stereo not given) read 8.132%. CCNc1cc2c(nn1)CCN(C(=O)c1cc3cccc(C)c3o1)C2 read -3.635%. For CC(C)CC(O)C1CCN(Cc2ccc(N(C)C)nc2)CC1 (stereo not given) the result was 2.815%. Result for CCc1nc(N2CCN(Cc3ncccc3C)CC2)c2cnn(C)c2n1 was -0.06915%.

For COc1ncccc1CN1C[C@@H]2COC[C@]2(COc2ccccn2)C1 the result was -0.6916%. With CN(C)Cc1nnc(C2CCCN(c3nc(C(N)=O)cs3)C2)n1C (stereo not given) the screen gave -0.5696%. With CCSc1ccccc1C(=O)N(CCOC)Cc1ccoc1 the screen gave 19.85%. For N#CCCN(C(=O)CN1CCCC1c1ccsc1)c1ccccc1F (stereo not given) the result was 0.09717%. Result for O=C(CCc1cccc(C2CCNCC2)n1)N1CCCCC1 was -0.3397%. For CCN(Cc1ccccc1)C1CCN(c2cc(C)nn2C)C1=O (stereo not given) the result was 2.388%.

Once more, the final 3:

SMILES	percent effect
N#CCCN(C(=O)CN1CCCC1c1ccsc1)c1ccccc1F (stereo not given)	0.09717
O=C(CCc1cccc(C2CCNCC2)n1)N1CCCCC1	-0.3397
CCN(Cc1ccccc1)C1CCN(c2cc(C)nn2C)C1=O (stereo not given)	2.388